From US7998954B2, “Pyrimidodiazepinone derivative” (Kyowa Hakko Kirin Co., Ltd., priority 2007, dated 2011)
Some entries share one result that the patent states for a list of compounds. At least one structure is not confirmed: it was looked up by name or label, or the drawing left a doubt.

Tested on: α2δ protein
Assay: α2δ protein binding experiment ([3H]-gabapentin binding inhibition, rat cerebral cortex membrane fraction)
Details: 0.1 μmol/L test compound, 20 nmol/L [3H]-Gabapentin

SMILES | inhibitory activity ([3H]-Gabapentin binding inhibition) [%]
CCNc1ncc2c(n1)N1CCC[C@H]1CN(c1cccc(-c3noc(C(C)C)n3)c1)C2=O [Compound 75, (S)-9-Ethylamino-5-[3-(5-isopropyl-1,2,4-oxadiazol-3-yl)phenyl]-1,2,3,3a,4,5-hexahydro-5,8,10,10b-tetraazabenzo[e]azulen-6-one] | ≥ 50
CCNc1ncc2c(n1)N1CCC[C@H]1CN(c1cccc(-c3noc(COC)n3)c1)C2=O [Compound 76, (S)-9-Ethylamino-5-[3-(5-methoxymethyl-1,2,4-oxadiazol-3-yl)phenyl]-1,2,3,3a,4,5-hexahydro-5,8,10,10b-tetraazabenzo[e]azulen-6-one] | ≥ 50
CCc1nc(-c2cccc(N3C[C@@H]4CCCN4c4nc(NC)ncc4C3=O)c2)no1 [Compound 77, (S)-5-[3-(5-Ethyl-1,2,4-oxadiazol-3-yl)phenyl]-9-methylamino-1,2,3,3a,4,5-hexahydro-5,8,10,10b-tetraazabenzo[e]azulen-6-one] | ≥ 50
CCNc1ncc2c(n1)N1CCC[C@H]1CN(c1cccc(-c3noc(C4CC4)n3)c1)C2=O [Compound 78, (S)-5-[3-(5-Cyclopropyl-1,2,4-oxadiazol-3-yl)phenyl]-9-ethylamino-1,2,3,3a,4,5-hexahydro-5,8,10,10b-tetraazabenzo[e]azulen-6-one] | ≥ 50
CNc1ncc2c(n1)N1CCC[C@H]1CN(c1cccc(-c3noc(C(F)(F)F)n3)c1)C2=O [Compound 79, (S)-9-Methylamino-5-[3-(5-trifluoromethyl-1,2,4-oxadiazol-3-yl)phenyl]-1,2,3,3a,4,5-hexahydro-5,8,10,10b-tetraazabenzo[e]azulen-6-one] | ≥ 50
CNC(=O)c1nc(-c2cccc(N3C[C@@H]4CCCN4c4nc(NC)ncc4C3=O)c2)no1 [Compound 80, (S)—N-Methyl 3-[3-(9-Methylamino-6-oxo-2,3,3a,4-tetrahydro-1H,6H-5,8,10,10b-tetraazabenzo[e]azulen-5-yl)phenyl]-1,2,4-oxadiazole-5-carboxamide] | ≥ 50
CCNC(=O)c1nc(-c2cccc(N3C[C@@H]4CCCN4c4nc(NCC)ncc4C3=O)c2)no1 [Compound 81, (S)—N-Ethyl 3-[3-(9-Ethylamino-6-oxo-2,3,3a,4-tetrahydro-1H,6H-5,8,10,10b-tetraazabenzo[e]azulen-5-yl)phenyl]-1,2,4-oxadiazole-5-carboxamide] | ≥ 50
CCNc1ncc2c(n1)N1CCC[C@H]1CN(c1cccc(-c3noc(C(=O)N(C)C)n3)c1)C2=O [Compound 82, (S)—N,N-Dimethyl 3-[3-(9-Ethylamino-6-oxo-2,3,3a,4-tetrahydro-1H,6H-5,8,10,10b-tetraazabenzo[e]azulen-5-yl)phenyl]-1,2,4-oxadiazole-5-carboxamide] | ≥ 50
CCNc1ncc2c(n1)N1CCC[C@H]1CN(c1cccc(-c3ncon3)c1)C2=O [Compound 83, (S)-5-[3-(1,2,4-Oxadiazol-3-yl)phenyl]-9-ethylamino-1,2,3,3a,4,5-hexahydro-5,8,10,10b-tetraazabenzo[e]azulen-6-one] | ≥ 50
CCNc1ncc2c(n1)N1CCC[C@H]1CN(c1cccc(-c3noc(CO)n3)c1)C2=O [Compound 84, (S)-9-Ethylamino-5-[3-(5-hydroxymethyl-1,2,4-oxadiazol-3-yl)phenyl]-1,2,3,3a,4,5-hexahydro-5,8,10,10b-tetraazabenzo[e]azulen-6-one] | ≥ 50
CCNc1ncc2c(n1)N1CCC[C@H]1CN(c1cccc(-c3noc(C(N)=O)n3)c1)C2=O [Compound 85, (S)-3-[3-(9-Ethylamino-6-oxo-2,3,3a,4-tetrahydro-1H,6H-5,8,10,10b-tetraazabenzo[e]azulen-5-yl)phenyl]-1,2,4-oxadiazole-5-carboxamide] | ≥ 50
CNc1ncc2c(n1)N1CCC[C@H]1CN(c1cccc(-c3nc(C)no3)c1)C2=O [Compound 86, (S)-5-[3-(3-Methyl-1,2,4-oxadiazol-5-yl)phenyl]-9-methylamino-1,2,3,3a,4,5-hexahydro-5,8,10,10b-tetraazabenzo[e]azulen-6-one] | ≥ 50
CCNc1ncc2c(n1)N1CCC[C@H]1CN(c1cccc(-c3nc(C)no3)c1)C2=O [Compound 87, (S)-9-Ethylamino-5-[3-(3-methyl-1,2,4-oxadiazol-5-yl)phenyl]-1,2,3,3a,4,5-hexahydro-5,8,10,10b-tetraazabenzo[e]azulen-6-one] | ≥ 50
CCNc1ncc2c(n1)N1CCC[C@H]1CN(c1cccc(-c3nnc(C)n3C)c1)C2=O [Compound 88, (S)-9-Ethylamino-5-[3-(4,5-dimethyl-1,2,4-triazol-3-yl)phenyl]-1,2,3,3a,4,5-hexahydro-5,8,10,10b-tetraazabenzo[e]azulen-6-one] | ≥ 50
CNc1ncc2c(n1)N1CCC[C@H]1CN(c1cccc(-c3nn(C)c(=O)o3)c1)C2=O [Compound 89, (S)-3-Methyl-5-[3-(9-methylamino-6-oxo-2,3,3a,4-tetrahydro-1H,6H-5,8,10,10b-tetraazabenzo[e]azulen-5-yl)phenyl]-1,3,4-oxadiazol-2(3H)-one] | ≥ 50
CCNc1ncc2c(n1)N1CCC[C@H]1CN(c1cccc(-c3nn(C)c(=O)o3)c1)C2=O [Compound 90, (S)-5-[3-(9-Ethylamino-6-oxo-2,3,3a,4-tetrahydro-1H,6H-5,8,10,10b-tetraazabenzo[e]azulen-5-yl)phenyl]-3-methyl-1,3,4-oxadiazol-2(3H)-one] | ≥ 50
CCNc1ncc2c(n1)N1CCC[C@H]1CN(c1cccc(-c3noc(=O)n3C)c1)C2=O [Compound 91, (S)-3-[3-(9-Ethylamino-6-oxo-2,3,3a,4-tetrahydro-1H,6H-5,8,10,10b-tetraazabenzo[e]azulen-5-yl)phenyl]-4-methyl-1,2,4-oxadiazol-5(4H)-one] | ≥ 50
CCn1nc(-c2cccc(N3C[C@@H]4CCCN4c4nc(NC)ncc4C3=O)c2)oc1=O [Compound 92, (S)-3-Ethyl-5-[3-(9-methylamino-6-oxo-2,3,3a,4-tetrahydro-1H,6H-5,8,10,10b-tetraazabenzo[e]azulen-5-yl)phenyl]-1,3,4-oxadiazol-2(3H)-one] | ≥ 50
CCNc1ncc2c(n1)N1CCC[C@H]1CN(c1cccc(-c3nn(CC)c(=O)o3)c1)C2=O [Compound 93, (S)-3-Ethyl-5-[3-(9-ethylamino-6-oxo-2,3,3a,4-tetrahydro-1H,6H-5,8,10,10b-tetraazabenzo[e]azulen-5-yl)phenyl]-1,3,4-oxadiazol-2(3H)-one] | ≥ 50
CCNc1ncc2c(n1)N1CCC[C@H]1CN(c1cccc(-c3nn(C(C)C)c(=O)o3)c1)C2=O [Compound 94, (S)-5-[3-(9-Ethylamino-6-oxo-2,3,3a,4-tetrahydro-1H,6H-5,8,10,10b-tetraazabenzo[e]azulen-5-yl)phenyl]-3-isopropyl-1,3,4-oxadiazol-2(3H)-one] | ≥ 50
CCNc1ncc2c(n1)N1CCC[C@H]1CN(c1cccc(-c3nn(CC4CC4)c(=O)o3)c1)C2=O [Compound 95, (S)-3-Cyclopropylmethyl-5-[3-(9-ethylamino-6-oxo-2,3,3a,4-tetrahydro-1H,6H-5,8,10,10b-tetraazabenzo[e]azulen-5-yl)phenyl]-1,3,4-oxadiazol-2(3H)-one] | ≥ 50
CCNc1ncc2c(n1)N1CCC[C@H]1CN(c1cccc(-c3nn(CCO)c(=O)o3)c1)C2=O [Compound 96, (S)-5-[3-(9-Ethylamino-6-oxo-2,3,3a,4-tetrahydro-1H,6H-5,8,10,10b-tetraazabenzo[e]azulen-5-yl)phenyl]-3-(2-hydroxyethyl)-1,3,4-oxadiazol-2(3H)-one] | ≥ 50
CNc1ncc2c(n1)N1CCC[C@H]1CN(c1cccc(-c3nn(CCOC)c(=O)o3)c1)C2=O [Compound 97, (S)-3-(2-Methoxyethyl)-5-[3-(9-methylamino-6-oxo-2,3,3a,4-tetrahydro-1H,6H-5,8,10,10b-tetraazabenzo[e]azulen-5-yl)phenyl]-1,3,4-oxadiazol-2(3H)-one] | ≥ 50
CNc1ncc2c(n1)N1CCC[C@H]1CN(c1cccc(-c3nn(C4CCOCC4)c(=O)o3)c1)C2=O [Compound 98, (S)-5-[3-(9-Methylamino-6-oxo-2,3,3a,4-tetrahydro-1H,6H-5,8,10,10b-tetraazabenzo[e]azulen-5-yl)phenyl]-3-(tetrahydro-2H-pyran-4-yl)-1,3,4-oxadiazol-2(3H)-one] | ≥ 50
CNc1ncc2c(n1)N1CCC[C@H]1CN(c1cccc(-c3nn(CCF)c(=O)o3)c1)C2=O [Compound 99, (S)-3-(2-Fluoroethyl)-5-[3-(9-methylamino-6-oxo-2,3,3a,4-tetrahydro-1H,6H-5,8,10,10b-tetraazabenzo[e]azulen-5-yl)phenyl]-1,3,4-oxadiazol-2(3H)-one] | ≥ 50
CCNc1ncc2c(n1)N1CCC[C@H]1CN(c1cccc(-c3nn(CC(F)F)c(=O)o3)c1)C2=O [Compound 100, (S)-3-(2,2-Difluoroethyl)-5-[3-(9-ethylamino-6-oxo-2,3,3a,4-tetrahydro-1H,6H-5,8,10,10b-tetraazabenzo[e]azulen-5-yl)phenyl]-1,3,4-oxadiazol-2(3H)-one] | ≥ 50
CCNc1ncc2c(n1)N1CCC[C@H]1CN(c1cccc(-c3nn(CCN4CCCC4=O)c(=O)o3)c1)C2=O [Compound 101] | ≥ 50
CNc1ncc2c(n1)N1CCC[C@H]1CN(c1cccc(-c3nn(CC(C)=O)c(=O)o3)c1)C2=O [Compound 102, (S)-5-[3-(9-Methylamino-6-oxo-2,3,3a,4-tetrahydro-1H,6H-5,8,10,10b-tetraazabenzo[e]azulen-5-yl)phenyl]-3-(2-oxopropyl)-1,3,4-oxadiazol-2(3H)-one] | ≥ 50
CCNc1ncc2c(n1)N1CCC[C@H]1CN(c1cccc(-c3nn(CCNC(C)=O)c(=O)o3)c1)C2=O [Compound 103] | ≥ 50
